Data taken from ChEMBL document CHEMBL3988442, “University of Dundee, Small-Polar-MMV Screening Library” (2021).

T. brucei: 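Whole-parasite assay of Trypanosoma brucei over 72 hours; the read-out is not stated. Tested at 30 µM. Higher reads as stronger inhibition (inferred: compounds with an IC50 in retests scored well above the rest). Values scatter widely below zero; nearly all retest evidence comes from the higher of the two concentrations used. Size under these conditions: about 64,000 compounds, about 940 of them at 50% or above in at least one test.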
Toxoplasma: 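Assay of Toxoplasma gondii numbers, read through their beta-galactosidase reporter with a colour substrate. Concentration: 10 µM. Higher reads as fewer parasites (inferred from which compounds were picked for retests). Size under these conditions: about 67,000 compounds, about 260 of them at 50% or above in at least one test.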

Results are given as percent effect.
How 0% and 100% were set is not recorded. Most values in the screen are low, and negative values occur.
Compounds were drawn at random from those tested, without regard to their results.

* COC(C)(C)C(=O)N1CCC(c2cc(CN(C)C)n(C)n2)CC1.Cl : T. brucei: -10.49%; Toxoplasma: -26.53%
* O=C(CC1CCCO1)Nc1cccc(N2CCN(CC3CC3)CC2)c1 (centres undefined) : T. brucei: -9.783%; Toxoplasma: -36.13%
* N#CCCN(CC1CCOC1)Cn1ccc(-c2ccsc2)n1 (centres undefined) : T. brucei: -36.15%; Toxoplasma: 2.443%
* COc1nn(C)c2c1CCCN(S(=O)(=O)c1cccs1)C2 : T. brucei: -251.4%; Toxoplasma: -3.151%
* COCCC(=O)N(C)Cc1nc(C(F)(F)F)cs1 : T. brucei: -45.05%; Toxoplasma: 21.6%
* O=C(O)C(F)(F)F.[H][C@]12CCN(C(=O)c3cc[nH]n3)CC[C@@]1([H])S(=O)(=O)N(Cc1ccccc1)C2 : T. brucei: -58.78%; Toxoplasma: 6.803%
* CCC(C)(C)NCc1nc(C(C)(C)NC(=O)OC(C)(C)C)no1 : T. brucei: -16.21%; Toxoplasma: -6.561%
* Cc1csc(N2CCN(CC(=O)Nc3nncs3)CC2C)n1 (centres undefined) : T. brucei: 27.99%; Toxoplasma: 6.139%
* O=C(CCCNc1ncccn1)Nc1cc(C(F)(F)F)c[nH]c1=O : Toxoplasma: 18.22%
* COc1ccc(C(=O)N2CCN(C(=O)CCCc3cn[nH]c3)CC2)cc1 : T. brucei: -34.24%; Toxoplasma: -10.41%
* Cc1nc(CC(=O)N2CCc3nc(-c4cnccn4)nc(O)c3C2)cs1 : T. brucei: -8.721%; Toxoplasma: 23.13%
* N#Cc1ccc(CN2CCC(CN3CCOCC3)C2)cc1 (centres undefined) : T. brucei: -22.9%; Toxoplasma: -13.82%
* CN1CCN(C2CCN(CCOc3ccc(Cl)cc3)CC2)C1=O : T. brucei: 2.392%; Toxoplasma: 4.731%
* COC(=O)c1ccc2ccn(CC3CCCN(C)C3)c(=O)c2c1 (centres undefined) : T. brucei: -9.185%; Toxoplasma: 7.786%
* Cc1ccc2c(n1)N(CC1CC1)CCN(C(=O)c1ccncc1F)C2.O=C(O)C(F)(F)F.O=C(O)C(F)(F)F : T. brucei: -19.36%; Toxoplasma: -6.807%
* Cc1noc(C)c1S(=O)(=O)N(C)Cc1nn(C)c(Cl)c1Cl : T. brucei: -16.6%; Toxoplasma: 2.291%
* CN1CC(C(=O)NC2(c3ccc(Cl)cc3)CCOCC2)CC1=O (centres undefined) : T. brucei: -18.17%; Toxoplasma: -31.79%
* CCC1CCCCN1CCc1ccncc1 (centres undefined) : T. brucei: 96.43%; Toxoplasma: 0.9259%
* O=C(c1ccncc1)N1CCCC1c1cccc(Br)c1 (centres undefined) : T. brucei: -25.76%; Toxoplasma: -11.52%
* COc1ccc2cccc(CC(=O)NCc3n[nH]c(=O)[nH]3)c2c1 : T. brucei: -18.98%; Toxoplasma: -0.6849%
* CC(SCC(=O)N(C)CC(=O)NC1CC1)c1cc(F)ccc1F (centres undefined) : T. brucei: -14.88%; Toxoplasma: 8.014%
* CCN1CCN(C(C)(C)CNc2nc(C)cc(C3CCC3)n2)CC1 : T. brucei: -5.075%; Toxoplasma: 2.411%
* COC(=O)c1ccc2ccn(CC3COCCO3)c(=O)c2c1 (centres undefined) : T. brucei: -12.88%; Toxoplasma: 7.786%
* CCC1CN(CC(=O)NCCN2CCCCC2)c2ccccc2S1 (centres undefined) : T. brucei: 20.08%; Toxoplasma: 11.32%
* O=C(CC1CCCC1)N1CCCC(c2n[nH]c3nccnc23)C1 (centres undefined) : T. brucei: 16.98%; Toxoplasma: 3.139%
* CN(C)C(C(=O)NCC1(O)CCCCC1)c1c(F)cccc1F (centres undefined) : T. brucei: -6.735%; Toxoplasma: 1.337%
* CCOc1ncccc1C(=O)N1CCCC1c1c(C)nn(C)c1OC (centres undefined) : T. brucei: 3.881%; Toxoplasma: -2.447%
* CCc1ccc(NC(=O)C2OC(c3cccs3)=NN2C(C)=O)cc1 (centres undefined) : T. brucei: 6.803%; Toxoplasma: -9.877%
* Cl.Cl.Fc1cccc(-c2c[nH]c(C3CCCN3)n2)c1 (centres undefined) : T. brucei: -33.22%; Toxoplasma: -0.2157%
* O=C1CCc2cc(-c3csc(CCN4CCOC4=O)n3)c(F)cc2N1 : T. brucei: -8.383%; Toxoplasma: -58.1%
* COCCn1ccnc1C1CCCN(C(=O)c2cccnc2SC)C1 (centres undefined) : T. brucei: -36.59%; Toxoplasma: 5.967%
* CS(=O)(=O)CCn1ccc(NC(=O)Cc2cccc(Cl)c2)n1 : T. brucei: -1.994%; Toxoplasma: 1.623%
* COc1cc2ncn(Cc3ncc[nH]3)c(=O)c2cc1OC : T. brucei: -57.68%; Toxoplasma: -5.912%
* Cc1cc(C)n(C2CCCN(C(=O)c3ccn(C)c(=O)c3)C2)n1 (centres undefined) : T. brucei: 13.05%; Toxoplasma: -1.158%
* O=C(O)C(F)(F)F.[H][C@@]12CCN(Cc3nccs3)[C@]1([H])CC[C@@H](C(=O)Nc1cnccn1)O2 : T. brucei: -28.87%; Toxoplasma: 8.455%
* O=C(NCCOc1ccccc1)C1NCCc2[nH]cnc21 (centres undefined) : T. brucei: -33.27%; Toxoplasma: -0.7506%
* CC(C(N)=O)N(C)CCCc1cc(-c2ccc(F)cc2)n(C)n1 (centres undefined) : T. brucei: -7.11%; Toxoplasma: -23.87%
* CCc1nnsc1C(=O)N1CCOC(c2nc(C)n[nH]2)C1 (centres undefined) : T. brucei: 18.9%; Toxoplasma: 2.306%
* Cc1ncc(S(C)(=O)=O)c(N2CCCCCC2)n1 : T. brucei: -19.02%; Toxoplasma: -5.754%
* CCCc1cc(CNC2CCN(c3nc4ccccc4s3)CC2)on1 : T. brucei: -8.839%; Toxoplasma: 26.82%
* COc1c(Br)c(C(=O)NC2CCCCC2)nn1C : T. brucei: -30.68%; Toxoplasma: -13.11%
* CS(=O)(=O)N1Cc2ccnn2CC(C(=O)NCc2cccnc2)C1.O=C(O)C(F)(F)F.O=C(O)C(F)(F)F (centres undefined) : T. brucei: -18.04%; Toxoplasma: 17.78%

Repeated from the top, 5 entries:

{"compound": "COC(C)(C)C(=O)N1CCC(c2cc(CN(C)C)n(C)n2)CC1.Cl", "T. brucei": -10.49, "Toxoplasma": -26.53}
{"compound": "O=C(CC1CCCO1)Nc1cccc(N2CCN(CC3CC3)CC2)c1", "stereo": "centres undefined", "T. brucei": -9.783, "Toxoplasma": -36.13}
{"compound": "N#CCCN(CC1CCOC1)Cn1ccc(-c2ccsc2)n1", "stereo": "centres undefined", "T. brucei": -36.15, "Toxoplasma": 2.443}
{"compound": "COc1nn(C)c2c1CCCN(S(=O)(=O)c1cccs1)C2", "T. brucei": -251.4, "Toxoplasma": -3.151}
{"compound": "COCCC(=O)N(C)Cc1nc(C(F)(F)F)cs1", "T. brucei": -45.05, "Toxoplasma": 21.6}